Results reported in the supplement of paper PMC8728848.
Some of the results follow.

Experiments:
Test in all cases: glycan array binding signal (z-score within array); higher = stronger binding
Conditions in all cases: glycan notation: IUPAC condensed, linker removed
Gal(b1-2)Gal = target: Gal(b1-2)Gal
In short: (§1)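 Glycan array data came from 3228 arrays in the Consortium for Functional Glycomics database, and only arrays with an available protein sequence were kept. Glycan names were put into IUPAC-condensed notation, and columns mapping to the same glycan were averaged. The binding signal is a within-array Z-score, averaged across arrays of one protein sequence run at different concentrations or buffers and across linkers. A negative Z-score can be read as non-binding.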

Gal(b1-3)Gal = target: Gal(b1-3)Gal
In short: as §1

Gal(b1-3)Gal(b1-4)GlcNAc = target: Gal(b1-3)Gal(b1-4)GlcNAc
In short: as §1

Gal(b1-3)GalNAc = target: Gal(b1-3)GalNAc
In short: as §1

[1] = target: Gal(b1-3)GalNAc(a1-3)[Fuc(a1-2)]Gal(b1-4)Glc
In short: as §1

[2] = target: Gal(b1-3)GalNAc(a1-3)[Fuc(a1-2)]Gal(b1-4)GlcNAc
In short: as §1

Gal(b1-3)GalNAc(b1-3)Gal = target: Gal(b1-3)GalNAc(b1-3)Gal
In short: as §1

[3] = target: Gal(b1-3)GalNAc(b1-3)Gal(a1-4)Gal(b1-4)Glc
In short: as §1

[4] = target: Gal(b1-3)GalNAc(b1-4)Gal(b1-4)Glc
In short: as §1

[5] = target: Gal(b1-3)GalNAc(b1-4)[Neu5Ac(a2-3)]Gal(b1-4)Glc
In short: as §1

Gal(b1-3)GlcNAc = target: Gal(b1-3)GlcNAc
In short: as §1

[6] = target: Gal(b1-3)GlcNAc(a1-3)Gal(b1-4)GlcNAc
In short: as §1

[7] = target: Gal(b1-3)GlcNAc(a1-6)Gal(b1-4)GlcNAc
In short: as §1

Gal(b1-3)GlcNAc(b1-2)Man = target: Gal(b1-3)GlcNAc(b1-2)Man
In short: as §1

[8] = target: Gal(b1-3)GlcNAc(b1-2)Man(a1-3)[Gal(b1-3)GlcNAc(b1-2)Man(a1-6)]Man(b1-4)GlcNAc(b1-4)GlcNAc
In short: as §1

[9] = target: Gal(b1-3)GlcNAc(b1-2)Man(a1-3)[Gal(b1-3)GlcNAc(b1-2)Man(a1-6)]Man(b1-4)GlcNAc(b1-4)[Fuc(a1-6)]GlcNAc
In short: as §1

[10] = target: Gal(b1-3)GlcNAc(b1-2)Man(a1-3)[GlcNAc(b1-4)][Gal(b1-3)GlcNAc(b1-2)Man(a1-6)]Man(b1-4)GlcNAc(b1-4)GlcNAc
In short: as §1

[11] = target: Gal(b1-3)GlcNAc(b1-2)[Gal(b1-3)GlcNAc(b1-6)]Man(a1-6)[Gal(b1-3)GlcNAc(b1-2)Man(a1-3)]Man(b1-4)GlcNAc(b1-4)GlcNAc
In short: as §1

[12] = target: Gal(b1-3)GlcNAc(b1-3)Gal(b1-3)GlcNAc
In short: as §1

[13] = target: Gal(b1-3)GlcNAc(b1-3)Gal(b1-4)Glc
In short: as §1

[14] = target: Gal(b1-3)GlcNAc(b1-3)Gal(b1-4)GlcNAc
In short: as §1

[15] = target: Gal(b1-3)GlcNAc(b1-3)Gal(b1-4)GlcNAc(b1-2)Man(a1-3)[Gal(b1-3)GlcNAc(b1-3)Gal(b1-4)GlcNAc(b1-2)Man(a1-6)]Man(b1-4)GlcNAc(b1-4)GlcNAc
In short: as §1

[16] = target: Gal(b1-3)GlcNAc(b1-3)Gal(b1-4)GlcNAc(b1-2)[Gal(b1-3)GlcNAc(b1-3)Gal(b1-4)GlcNAc(b1-6)]Man(a1-6)[Gal(b1-3)GlcNAc(b1-3)Gal(b1-4)GlcNAc(b1-2)Man(a1-3)]Man(b1-4)GlcNAc(b1-4)[Fuc(a1-6)]GlcNAc
In short: as §1

[17] = target: Gal(b1-3)GlcNAc(b1-3)Gal(b1-4)GlcNAc(b1-3)Gal(b1-4)GlcNAc(b1-2)[Gal(b1-3)GlcNAc(b1-3)Gal(b1-4)GlcNAc(b1-3)Gal(b1-4)GlcNAc(b1-6)]Man(a1-6)[Gal(b1-3)GlcNAc(b1-3)Gal(b1-4)GlcNAc(b1-3)Gal(b1-4)GlcNAc(b1-2)Man(a1-3)]Man(b1-4)GlcNAc(b1-4)[Fuc(a1-6)]GlcNAc
In short: as §1

[18] = target: Gal(b1-3)GlcNAc(b1-3)Gal(b1-4)GlcNAc(b1-6)[Gal(b1-3)GlcNAc(b1-3)]Gal(b1-4)Glc
In short: as §1

[19] = target: Gal(b1-3)GlcNAc(b1-3)Gal(b1-4)[Fuc(a1-3)]GlcNAc
In short: as §1

[20] = target: Gal(b1-3)GlcNAc(b1-3)Gal(b1-4)[Fuc(a1-3)]GlcNAc(b1-6)[Gal(b1-3)GlcNAc(b1-3)]Gal(b1-4)Glc
In short: as §1

[21] = target: Gal(b1-3)GlcNAc(b1-3)GalNAc
In short: as §1

[22] = target: Gal(b1-3)GlcNAc(b1-6)Gal(b1-4)GlcNAc
In short: as §1

[23] = target: Gal(b1-3)GlcNAc(b1-6)GalNAc
In short: as §1

[24] = target: Gal(b1-3)GlcNAc(b1-6)[Gal(b1-3)]GalNAc
In short: as §1

Gal(b1-3)GlcNAc6S = target: Gal(b1-3)GlcNAc6S
In short: as §1

[25] = target: Gal(b1-3)[Fuc(a1-4)]GlcNAc
In short: as §1

[26] = target: Gal(b1-3)[Fuc(a1-4)]GlcNAc(b1-2)Man
In short: as §1

[27] = target: Gal(b1-3)[Fuc(a1-4)]GlcNAc(b1-2)Man(a1-3)[Gal(b1-3)[Fuc(a1-4)]GlcNAc(b1-2)Man(a1-6)]Man(b1-4)GlcNAc(b1-4)[Fuc(a1-6)]GlcNAc
In short: as §1

[28] = target: Gal(b1-3)[Fuc(a1-4)]GlcNAc(b1-3)Gal(b1-3)[Fuc(a1-4)]GlcNAc
In short: as §1

[29] = target: Gal(b1-3)[Fuc(a1-4)]GlcNAc(b1-3)Gal(b1-4)[Fuc(a1-3)]GlcNAc
In short: as §1

[30] = target: Gal(b1-3)[Fuc(a1-4)]GlcNAc(b1-6)GalNAc
In short: as §1

[31] = target: Gal(b1-3)[GlcNAc(b1-6)]GalNAc
In short: as §1

[32] = target: Gal(b1-3)[Neu5Ac(a2-6)]GalNAc
In short: as §1

[33] = target: Gal(b1-3)[Neu5Ac(a2-6)]GlcNAc(b1-4)Gal(b1-4)Glc
In short: as §1

[34] = target: Gal(b1-3)[Neu5Ac(b2-6)]GalNAc
In short: as §1

Gal(b1-4)Gal = target: Gal(b1-4)Gal
In short: as §1

[35] = target: Gal(b1-4)GalNAc(a1-3)[Fuc(a1-2)]Gal(b1-4)GlcNAc
In short: as §1

[36] = target: Gal(b1-4)GalNAc(b1-3)[Fuc(a1-2)]Gal(b1-4)GlcNAc
In short: as §1

B1: EULS2 M1 (Oryza sativa) (protein)
chain: MVYCRANPNYAMTARNGAVVLAPANPKDEYQHWIKDMRWSTSIKDEEGYPAFALVNKATGQAIKHSLGQSHPVRLVPYNPEVMDESVLWTESRDVGNGFRCIRMVNNIYLNFDAFHGDKYHGGVRDGTDIVLWKLCEGDNQRWKIQPYYILEQKLISEEDLNSAVDHHHHHH
Gal(b1-2)Gal
  glycan array binding signal (z-score): 0.592
Gal(b1-3)Gal
  glycan array binding signal (z-score): 0.605
Gal(b1-3)Gal(b1-4)GlcNAc
  glycan array binding signal (z-score): -0.685
Gal(b1-3)GalNAc
  glycan array binding signal (z-score): -0.221
[1]
  glycan array binding signal (z-score): 0.267
[2]
  glycan array binding signal (z-score): -0.105
Gal(b1-3)GalNAc(b1-3)Gal
  glycan array binding signal (z-score): -0.335
[3]
  glycan array binding signal (z-score): -0.504
[4]
  glycan array binding signal (z-score): -0.718
[5]
  glycan array binding signal (z-score): -0.704
Gal(b1-3)GlcNAc
  glycan array binding signal (z-score): -0.34
[6]
  glycan array binding signal (z-score): -0.534
[7]
  glycan array binding signal (z-score): -0.715
Gal(b1-3)GlcNAc(b1-2)Man
  glycan array binding signal (z-score): -0.26
[8]
  glycan array binding signal (z-score): -0.11
[9]
  glycan array binding signal (z-score): -0.211
[10]
  glycan array binding signal (z-score): 1.35
[11]
  glycan array binding signal (z-score): 0.089
[12]
  glycan array binding signal (z-score): -0.334
[13]
  glycan array binding signal (z-score): 0.016
[14]
  glycan array binding signal (z-score): 0.123
[15]
  glycan array binding signal (z-score): 0.29
[16]
  glycan array binding signal (z-score): -0.06
[17]
  glycan array binding signal (z-score): 0.535
[18]
  glycan array binding signal (z-score): -0.454
[19]
  glycan array binding signal (z-score): 0.122
[20]
  glycan array binding signal (z-score): -1
[21]
  glycan array binding signal (z-score): -0.422
[22]
  glycan array binding signal (z-score): -0.343
[23]
  glycan array binding signal (z-score): 0.284
[24]
  glycan array binding signal (z-score): 0.808
Gal(b1-3)GlcNAc6S
  glycan array binding signal (z-score): 0.324
[25]
  glycan array binding signal (z-score): -0.54
[26]
  glycan array binding signal (z-score): 1.75
[27]
  glycan array binding signal (z-score): 1.19
[28]
  glycan array binding signal (z-score): 3.42
[29]
  glycan array binding signal (z-score): -1.44
[30]
  glycan array binding signal (z-score): 0.91
[31]
  glycan array binding signal (z-score): -0.527
[32]
  glycan array binding signal (z-score): 1.39
[33]
  glycan array binding signal (z-score): -0.492
[34]
  glycan array binding signal (z-score): 2.3
Gal(b1-4)Gal
  glycan array binding signal (z-score): 0.801
[35]
  glycan array binding signal (z-score): 0.104
[36]
  glycan array binding signal (z-score): 0.097
